# Measurements from the supplement of paper PMC11150407.
# Screen size: about 3,000 compounds; about 45 (2%) showed an effect of 50% or more. This is one part of the list.
# System: MOLM1 and UCSD/AML1 (averaged)
# Assay: cell viability relative to DMSO control (POC); higher = less growth inhibition
# Conditions: 1 µM; 72 h
# Method: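 Primary viability screen in the 3q26 EVI1-high AML cell lines MOLM1 and UCSD/AML1, compounds at 1 uM for 72 h. ATP CellTiter-Glo read-out given as percent viable over DMSO control (POC), averaged over duplicates. This mapping covers the TimTec NDL-3000 natural derivative library, whose compounds are identified by TimTec catalogue codes (ST...).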
row,Compound,cell viability [%]
1,O=C(Nc1ccc(Br)cc1)C1=Cc2ccccc2OC1,97
2,CCOC(=O)C1Nc2c(Cl)ccc(C(=O)O)c2C2C=CCC12 (stereo not given),103
3,O=c1oc2cc(O)ccc2cc1-c1ccc(Cl)cc1,96.4
4,CC(=O)OC1CCC2(C)C(CCC3(C)C2C(=O)C=C2C4CC(C)(C(=O)Nc5ccccc5C)CCC4(C)CCC23C)C1(C)C (stereo not given),105
5,COC(=O)c1c(NC(=O)CN2CCC3(O)CCCCC3C2c2ccc(OC)cc2)sc2c1CCCC2 (stereo not given),99.9
6,COc1ccc(C(=O)Nc2cc(C)cc(C)c2)cc1OC,87.3
7,CCOc1ccc2[nH]c(=O)c(Cc3ccccc3)c(O)c2c1,105
8,O=C(Nc1cccc(C(F)(F)F)c1)c1cc(=O)[nH]c2ccccc12,96.9
9,COc1cc(O)c(C(=O)Cc2ccc(Cl)cc2)c(OC)c1,101
10,C#CC1(OC(C)=O)CCC2C3CCc4cc(OC(C)=O)ccc4C3C(OC(C)=O)CC21C (stereo not given),88.5
11,O=c1[nH]c2c(-c3ccccc3)cccc2c(O)c1C(c1ccc(F)cc1)c1c(O)c2ccccc2n(-c2ccccc2)c1=O (stereo not given),97.5
12,CCOc1ccc2oc(=O)cc(CN3CCN(CC(=O)N4CCCCC4)CC3)c2c1,97.5
13,CCCCOC(=O)Cn1cnc2ccc(Br)cc2c1=O,95.8
14,COc1cc(C2C(C#N)=C(N)Oc3n[nH]c(C)c32)cc2c1OCO2 (stereo not given),104
15,Cc1ccc(Cl)cc1NC(=O)CSc1nc2c(=O)[nH]cnc2n1C,115
16,COc1ccc(C2c3[nH]c4ccccc4c3CCN2Cc2ccccc2Cl)cc1 (stereo not given),97.3
17,CCOC(=O)c1c(C)n(-c2cccc(C)c2)c2ccc(OC)cc12,99.7
18,O=C(CSc1nc2ccccc2c(=O)[nH]1)Nc1ccc2c(c1)OCCO2,101
19,Cc1cccc(NC(=O)CN2C(=O)N/C(=C\c3cc4c(cc3Cl)OCO4)C2=O)c1,88.7
20,CCOc1ccc2oc(=O)cc(CN3CCN(CC(=O)NC4CCCCC4)CC3)c2c1,103
21,CCOC(=O)c1c(NC(=O)c2cc3ccccc3oc2=O)sc2c1CCCCCCCCCC2,98.4
22,CC1(C)CC(NC(=O)c2cc3cc(Br)ccc3oc2=O)CC(C)(C)N1,100
23,COc1ccc(Nc2nc(N)c(C(=O)c3ccc4c(c3)OCCO4)s2)cc1,95.6
24,COc1cc(C(=O)/C=C2\C(=O)Nc3ccccc32)cc(OC)c1OC,21.6
25,Cc1[nH]c2ccc(OCc3ccccc3)cc2c1CCNC(=O)c1cccc(Br)c1,91.8

row,Compound,cell viability [%]
1,N[C@@H](CSCc1ccccc1)C(=O)O,99.8
2,CNC(=O)c1cc(=O)n(CC(=O)Nc2ccccc2Cl)c2ccccc12,112
3,CC(=O)c1ccc(NC(=O)CN2CCN(Cc3cc(=O)oc4cc(C)ccc34)CC2)cc1,110
4,CCOc1ccccc1C1C2CCCCC2(O)CCN1C(=O)/C=C/c1ccc2c(c1)OCO2 (stereo not given),110
5,Cc1cccc(-c2nc(CSc3nc4c(=O)[nH]cnc4n3C)c(C)o2)c1,102
6,O=C(O)/C=C/c1cc([N+](=O)[O-])ccc1Cl,104
7,Cc1ccc2nc(-c3ccc(NC(=O)CN4CCc5ccccc5C4)cc3)sc2c1,102
8,COC(=O)c1ccc(C(=O)NCCc2c(C)[nH]c3c(C)ccc(F)c23)cc1,91.1
9,Cn1c(SCc2cccc(C(F)(F)F)c2)nc2c(=O)[nH]cnc21,91.9
10,COc1ccc(C(=O)N/C(=C\c2ccco2)C(=O)NCCc2c(C)[nH]c3ccccc23)cc1,89.4
11,COc1ccc(C(c2c(O)c3ccccc3n(-c3ccccc3)c2=O)c2c(O)c3ccccc3n(-c3ccccc3)c2=O)cc1OC,98.8
12,C#CC1(OC(C)=O)CCC2C3CCc4cc(OC(C)=O)ccc4C3C(O)CC21C (stereo not given),97.6
13,COC1OC2COC(c3ccccc3)OC2C(OC(=O)c2ccccc2)C1OC(=O)c1ccccc1 (stereo not given),91.9
14,COc1cc(C(=O)N2CCN(S(=O)(=O)c3ccc(NC(C)=O)cc3)CC2)cc(OC)c1OC,105
15,O=C(CSc1nc2c(=O)[nH]cnc2n1-c1ccccc1)NC1CCCC1,91.7
16,COC(=O)c1sc(NC(=O)c2ccc3c(c2)OCO3)c(C#N)c1C,94.9
17,N#CC1=C(N)Oc2[nH]c(=O)[nH]c(=O)c2C1c1ccccc1F (stereo not given),94.3
18,Cc1cc(C(F)(F)F)c2c(N)c(C(=O)N3CCC[C@H]3C(=O)O)sc2n1,96.1
19,CCOc1cc(C(=O)OCC(=O)Nc2cc(C)ccc2C)cc(OCC)c1OCC,105
20,N#Cc1cc2c(nc1SCC(=O)N1CCC[C@H]1C(=O)O)CCC2,89.9
21,CCCCCOc1ccc(C2=NOC(=O)/C2=C\c2cc(Cl)ccc2O)cc1,92.3
22,COc1ccc2[nH]cc(CCNC(=O)c3ccc(Cl)cc3)c2c1,101
23,COC(=O)CC(N)c1ccccc1F (stereo not given),104
24,Cc1ccc(Cn2c(OCc3nc(N)nc(N4CCOCC4)n3)nc3c2c(=O)n(C)c(=O)n3C)cc1,104
25,Cc1ccc(NC(=O)Cn2c(=O)cc(C(=O)NCc3ccccc3)c3ccccc32)cc1,94.2

row,Compound,cell viability [%]
1,O=C(/C=C/c1ccc2c(c1)OCO2)NCc1ccc(Cl)cc1,105
2,CCCNC(=O)c1cc(=O)n(CC(=O)Nc2cccc(Cl)c2C)c2ccccc12,97.1
3,COc1ccc(NC(=O)Cn2c(=O)cc(C(=O)N3CCOCC3)c3ccccc32)cc1OC,102
4,COc1ccc(C(NS(=O)(=O)c2ccc(C)cc2)c2nccc3cc(OC)c(OC)cc23)cc1OC (stereo not given),98.4
5,Cc1ccccc1CSc1nc2c(=O)[nH]cnc2n1-c1ccccc1,93.2
6,Nc1nc2nc(N3CCOCC3)[nH]c2c(=O)[nH]1,105
7,Cc1ccccc1NC(=O)C(Cc1c[nH]c2ccccc12)NC(=O)Oc1ccccc1 (stereo not given),95.1
8,COc1cc(C(=O)Nc2cc(C(F)(F)F)ccc2N2CCOCC2)ccc1Oc1cc([N+](=O)[O-])cc(C(F)(F)F)c1,91.6
9,COc1ccc(C2NC(C(=O)O)Cc3c2[nH]c2ccccc32)cc1COc1ccccc1C1CCCCC1 (stereo not given),85.9
10,Cc1cc(C)c2c(CN3CCc4ccccc4C3)cc(=O)oc2c1,90.7
11,COc1cc(C2C(C(=O)OC3CCCCC3)=C(C)NC3=C2C(=O)CC(c2ccccc2)C3)cc(Cl)c1O (stereo not given),90
12,COc1ccc(C(=O)Nc2ccccc2C(C)C)cc1OC,103
13,Cn1c(=O)c2c(nc3n2CC(C24CC5CC(CC(C5)C2)C4)=NN3CCO)n(C)c1=O,106
14,COc1ccc(/C=C2\Oc3cc(OC(C)=O)ccc3C2=O)cc1,111
15,Cc1nc2c(nc(SCC(=O)N3CCCc4ccccc43)n2C)c(=O)[nH]1,106
16,COc1ccc(-n2c(N)c(NC(=O)Nc3cccc(Cl)c3)c(=O)[nH]c2=O)cc1,96.8
17,N=c1oc2ccccc2cc1C(=O)Nc1ccc(F)cc1,103
18,COc1ccc(-c2oc3ccccc3c(=O)c2OC(C)C(=O)O)cc1 (stereo not given),100
19,CSc1cccc(NC(=O)Cn2c(=O)cc(C(=O)N3CCCC3)c3ccccc32)c1,97.9
20,CC(C)OC(=O)C1=C(N)Oc2c(oc(CO)cc2=O)C1c1ccccc1[N+](=O)[O-] (stereo not given),102
21,CC(=O)OC1CCC2(C)C(CCC3(C)C2C(=O)C=C2C4CC(C)(C(=O)N5CCOCC5)CCC4(C)CCC23C)C1(C)C (stereo not given),100
22,CC(C)c1ccc(NC(=O)CSc2nc3c(=O)[nH]cnc3n2C)cc1,88.6
23,CCOC(=O)CC(NC(=O)c1cc2cc(OC)ccc2oc1=O)c1ccccc1Cl (stereo not given),97.3
24,NC(N)=NCCCC(NC(=O)c1ccccc1)C(=O)Nc1ccc2ccccc2c1 (stereo not given),101
25,CC(=O)NC1C(Oc2ccc3c(C)cc(=O)oc3c2)OC(CO)C(O)C1O (stereo not given),98.6

# Among those listed so far, these contain sulfur:
row,Compound,cell viability [%]
5,COC(=O)c1c(NC(=O)CN2CCC3(O)CCCCC3C2c2ccc(OC)cc2)sc2c1CCCC2 (stereo not given),99.9
15,Cc1ccc(Cl)cc1NC(=O)CSc1nc2c(=O)[nH]cnc2n1C,115
18,O=C(CSc1nc2ccccc2c(=O)[nH]1)Nc1ccc2c(c1)OCCO2,101
21,CCOC(=O)c1c(NC(=O)c2cc3ccccc3oc2=O)sc2c1CCCCCCCCCC2,98.4
23,COc1ccc(Nc2nc(N)c(C(=O)c3ccc4c(c3)OCCO4)s2)cc1,95.6
1,N[C@@H](CSCc1ccccc1)C(=O)O,99.8
5,Cc1cccc(-c2nc(CSc3nc4c(=O)[nH]cnc4n3C)c(C)o2)c1,102
7,Cc1ccc2nc(-c3ccc(NC(=O)CN4CCc5ccccc5C4)cc3)sc2c1,102
9,Cn1c(SCc2cccc(C(F)(F)F)c2)nc2c(=O)[nH]cnc21,91.9
14,COc1cc(C(=O)N2CCN(S(=O)(=O)c3ccc(NC(C)=O)cc3)CC2)cc(OC)c1OC,105
15,O=C(CSc1nc2c(=O)[nH]cnc2n1-c1ccccc1)NC1CCCC1,91.7
16,COC(=O)c1sc(NC(=O)c2ccc3c(c2)OCO3)c(C#N)c1C,94.9
18,Cc1cc(C(F)(F)F)c2c(N)c(C(=O)N3CCC[C@H]3C(=O)O)sc2n1,96.1
20,N#Cc1cc2c(nc1SCC(=O)N1CCC[C@H]1C(=O)O)CCC2,89.9
4,COc1ccc(C(NS(=O)(=O)c2ccc(C)cc2)c2nccc3cc(OC)c(OC)cc23)cc1OC (stereo not given),98.4
5,Cc1ccccc1CSc1nc2c(=O)[nH]cnc2n1-c1ccccc1,93.2
15,Cc1nc2c(nc(SCC(=O)N3CCCc4ccccc43)n2C)c(=O)[nH]1,106
19,CSc1cccc(NC(=O)Cn2c(=O)cc(C(=O)N3CCCC3)c3ccccc32)c1,97.9
22,CC(C)c1ccc(NC(=O)CSc2nc3c(=O)[nH]cnc3n2C)cc1,88.6

# Remaining list, next part

row,Compound,cell viability [%]
1,Cc1[nH]c2ccc(CN)cc2c1C,103
2,Cc1ccc(Cn2c(SCC(=O)c3ccc([N+](=O)[O-])cc3)nc3c2c(=O)[nH]c(=O)n3C)cc1,101
3,O=C(O)/C=C/c1ccc(O)cc1,103
4,CCn1c(SCC(=O)O)nc2c1c(=O)[nH]c(=O)n2C,98.8
5,COC(=O)CNC(=O)c1ccc(NC(C)=O)cc1,101
6,COc1ccc(/C=C2\CCc3ccccc3C2=O)cc1,94
7,CCCc1cc(=O)[nH]c(SCc2ccc(C(=O)Nc3cccc(C)c3)cc2)n1,91.3
8,O=C(/C=C/c1cccc([N+](=O)[O-])c1)c1ccc2c(c1)OCO2,98.1
9,CC(=O)N[C@@H](Cc1c[nH]c2ccccc12)C(N)=O,100
10,OC1C2COC(O2)C(O)C1O (stereo not given),102
11,CN(CCO)c1nc2c(=O)n(C)c(=O)n(C)c2n1C,98.8
12,O=C(/C=C/c1ccc([N+](=O)[O-])cc1)NCc1ccc2c(c1)OCO2,97
13,CC(C)Oc1ccc(CNC(=O)CSc2nc3ccccc3c(=O)[nH]2)cc1,105
14,CCOC(=O)CC[C@@H](C)[C@H]1CC[C@H]2[C@@H]3CC[C@@H]4C[C@H](O)CC[C@]4(C)[C@H]3C[C@H](O)[C@]12C,86
15,CCOC(=O)C1=C(C)NC2=C(C(=O)CCC2)C1c1cc(Br)c(O)c(OC)c1 (stereo not given),116
16,CC(=O)NC(N1CCCCC1c1cccnc1)(C(F)(F)F)C(F)(F)F (stereo not given),103
17,CC(Oc1ccccc1)C(=O)Nc1c[nH]c(=O)[nH]c1=O (stereo not given),100
18,COc1ccc(NC(=O)CN2CCN(Cc3cc(=O)oc4cc(C)ccc34)CC2)cc1Cl,96.9
19,COc1ccc2c(c1)c(CC(=O)NCCCN1CCCCC1)c(C)n2C(=O)c1ccc(Cl)cc1,81.2
20,N#Cc1c(N)c2ccccc2[nH]c1=O,103
21,CCOCCn1c(C)c(C(=O)OCC)c2cc(O)c3ccccc3c21,90.3
22,COc1cc(/C=c2/sc3nc4ccccc4n3c2=O)cc(OC)c1OC(C)=O,97.8
23,CCOc1ccc2oc(=O)cc(CSc3nc4ccccc4c(=O)[nH]3)c2c1,99.7
24,C=C(C)C1CCC2(COC(=O)/C=C/c3ccc(OC)cc3)CCC3(C)C(CCC4C5(C)CCC(O)C(C)(C)C5CCC43C)C12 (stereo not given),99.6
25,COc1ccccc1-c1nc(CSc2nc3c(=O)[nH]c(C)nc3n2C)c(C)o1,98

# 3 compounds out of the list, ordered by formula weight, low to high.
row,Compound,cell viability [%]
23,COC(=O)CC(N)c1ccccc1F (stereo not given),104
5,COC(=O)CNC(=O)c1ccc(NC(C)=O)cc1,101
19,Cc1cccc(NC(=O)CN2C(=O)N/C(=C\c3cc4c(cc3Cl)OCO4)C2=O)c1,88.7
